Values quoted from earlier work as cited in publication PMC4503256 (Biopharmaceutics & drug disposition, 2012).

Conditions: measured value; cited from earlier work

## CC(C)Cc1ccc(C(C)C(=O)O)cc1 (stereo not shown) [Ibuprofen]
  Intrinsic solubility at 37 °C: 3.3 × 10^−4a M
